Test results from the supplement of paper PMC10849652.
This is one part of the list.

By UniProt entry, the sequences of proteins in these tests, tags left out. Where a name states a change or a piece, a line headed by the entry shows the natural chain unless it says otherwise.
UniProt Q9NR19, whole entry, looked up: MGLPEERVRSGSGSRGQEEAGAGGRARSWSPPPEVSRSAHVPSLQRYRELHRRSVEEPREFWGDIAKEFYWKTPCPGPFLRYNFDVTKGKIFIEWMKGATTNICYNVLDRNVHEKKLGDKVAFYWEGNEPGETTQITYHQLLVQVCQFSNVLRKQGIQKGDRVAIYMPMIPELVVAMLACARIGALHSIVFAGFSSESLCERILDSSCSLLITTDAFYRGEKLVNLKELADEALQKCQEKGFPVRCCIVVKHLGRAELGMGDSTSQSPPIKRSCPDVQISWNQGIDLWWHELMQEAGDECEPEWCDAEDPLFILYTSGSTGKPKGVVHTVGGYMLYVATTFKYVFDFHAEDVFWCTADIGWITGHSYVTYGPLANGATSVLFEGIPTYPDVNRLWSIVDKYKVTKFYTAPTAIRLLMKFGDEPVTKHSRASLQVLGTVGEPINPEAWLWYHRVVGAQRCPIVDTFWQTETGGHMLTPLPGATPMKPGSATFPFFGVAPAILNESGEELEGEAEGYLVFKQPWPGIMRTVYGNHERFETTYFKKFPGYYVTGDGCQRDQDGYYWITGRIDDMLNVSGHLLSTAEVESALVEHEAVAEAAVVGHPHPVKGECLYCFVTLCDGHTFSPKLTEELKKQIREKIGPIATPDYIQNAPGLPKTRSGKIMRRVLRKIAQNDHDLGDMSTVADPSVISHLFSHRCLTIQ
UniProt P24752: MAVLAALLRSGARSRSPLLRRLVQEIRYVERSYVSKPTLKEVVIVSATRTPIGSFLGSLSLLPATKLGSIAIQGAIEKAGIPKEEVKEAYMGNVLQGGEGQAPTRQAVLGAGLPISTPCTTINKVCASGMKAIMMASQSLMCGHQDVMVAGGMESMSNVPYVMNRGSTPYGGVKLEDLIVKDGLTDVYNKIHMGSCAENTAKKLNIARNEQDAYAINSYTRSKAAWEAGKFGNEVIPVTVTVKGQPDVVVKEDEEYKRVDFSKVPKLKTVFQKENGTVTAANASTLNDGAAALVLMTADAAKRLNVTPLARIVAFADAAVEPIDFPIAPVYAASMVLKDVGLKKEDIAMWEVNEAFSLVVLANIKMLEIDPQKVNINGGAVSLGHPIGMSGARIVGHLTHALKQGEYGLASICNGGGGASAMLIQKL
UniProt P16219: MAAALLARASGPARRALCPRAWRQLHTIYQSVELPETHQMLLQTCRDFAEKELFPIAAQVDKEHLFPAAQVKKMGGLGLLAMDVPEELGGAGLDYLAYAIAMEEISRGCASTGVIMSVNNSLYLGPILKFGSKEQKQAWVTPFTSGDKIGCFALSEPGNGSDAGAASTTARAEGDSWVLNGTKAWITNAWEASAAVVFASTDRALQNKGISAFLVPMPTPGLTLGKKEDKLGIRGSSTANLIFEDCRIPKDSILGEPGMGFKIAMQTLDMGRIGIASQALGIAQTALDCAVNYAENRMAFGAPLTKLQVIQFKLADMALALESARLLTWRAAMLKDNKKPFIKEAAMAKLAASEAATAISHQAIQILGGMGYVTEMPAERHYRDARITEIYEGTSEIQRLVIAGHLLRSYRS
UniProt O14672: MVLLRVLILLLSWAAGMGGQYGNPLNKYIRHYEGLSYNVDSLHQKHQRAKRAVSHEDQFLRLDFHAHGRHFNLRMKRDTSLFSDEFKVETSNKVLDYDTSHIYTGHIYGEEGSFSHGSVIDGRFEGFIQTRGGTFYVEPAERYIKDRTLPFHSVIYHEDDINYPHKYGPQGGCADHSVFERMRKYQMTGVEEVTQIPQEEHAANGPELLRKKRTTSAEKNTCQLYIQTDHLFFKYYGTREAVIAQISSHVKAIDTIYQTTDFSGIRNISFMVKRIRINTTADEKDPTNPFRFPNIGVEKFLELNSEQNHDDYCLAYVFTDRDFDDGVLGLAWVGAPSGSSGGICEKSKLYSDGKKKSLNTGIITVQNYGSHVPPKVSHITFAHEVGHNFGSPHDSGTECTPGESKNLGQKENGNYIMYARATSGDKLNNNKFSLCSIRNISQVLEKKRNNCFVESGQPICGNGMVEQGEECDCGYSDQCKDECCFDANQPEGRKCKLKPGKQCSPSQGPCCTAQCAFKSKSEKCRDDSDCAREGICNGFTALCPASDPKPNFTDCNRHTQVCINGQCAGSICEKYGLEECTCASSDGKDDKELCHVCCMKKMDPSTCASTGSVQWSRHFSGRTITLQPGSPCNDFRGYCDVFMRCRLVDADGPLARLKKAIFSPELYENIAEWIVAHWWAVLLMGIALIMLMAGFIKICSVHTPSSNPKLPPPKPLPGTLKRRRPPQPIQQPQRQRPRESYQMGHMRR
UniProt Q9NZ32, whole entry, looked up: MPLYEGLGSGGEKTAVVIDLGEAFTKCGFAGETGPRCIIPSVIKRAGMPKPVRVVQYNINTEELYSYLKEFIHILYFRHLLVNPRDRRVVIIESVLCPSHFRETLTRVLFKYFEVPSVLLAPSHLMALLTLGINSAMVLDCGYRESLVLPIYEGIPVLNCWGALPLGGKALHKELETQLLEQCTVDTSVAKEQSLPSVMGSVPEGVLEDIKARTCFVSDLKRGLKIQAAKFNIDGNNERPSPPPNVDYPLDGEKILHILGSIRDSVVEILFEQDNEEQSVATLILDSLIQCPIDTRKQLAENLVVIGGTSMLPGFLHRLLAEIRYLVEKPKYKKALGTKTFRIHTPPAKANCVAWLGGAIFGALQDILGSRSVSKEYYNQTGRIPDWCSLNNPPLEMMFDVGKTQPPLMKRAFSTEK
UniProt P78536: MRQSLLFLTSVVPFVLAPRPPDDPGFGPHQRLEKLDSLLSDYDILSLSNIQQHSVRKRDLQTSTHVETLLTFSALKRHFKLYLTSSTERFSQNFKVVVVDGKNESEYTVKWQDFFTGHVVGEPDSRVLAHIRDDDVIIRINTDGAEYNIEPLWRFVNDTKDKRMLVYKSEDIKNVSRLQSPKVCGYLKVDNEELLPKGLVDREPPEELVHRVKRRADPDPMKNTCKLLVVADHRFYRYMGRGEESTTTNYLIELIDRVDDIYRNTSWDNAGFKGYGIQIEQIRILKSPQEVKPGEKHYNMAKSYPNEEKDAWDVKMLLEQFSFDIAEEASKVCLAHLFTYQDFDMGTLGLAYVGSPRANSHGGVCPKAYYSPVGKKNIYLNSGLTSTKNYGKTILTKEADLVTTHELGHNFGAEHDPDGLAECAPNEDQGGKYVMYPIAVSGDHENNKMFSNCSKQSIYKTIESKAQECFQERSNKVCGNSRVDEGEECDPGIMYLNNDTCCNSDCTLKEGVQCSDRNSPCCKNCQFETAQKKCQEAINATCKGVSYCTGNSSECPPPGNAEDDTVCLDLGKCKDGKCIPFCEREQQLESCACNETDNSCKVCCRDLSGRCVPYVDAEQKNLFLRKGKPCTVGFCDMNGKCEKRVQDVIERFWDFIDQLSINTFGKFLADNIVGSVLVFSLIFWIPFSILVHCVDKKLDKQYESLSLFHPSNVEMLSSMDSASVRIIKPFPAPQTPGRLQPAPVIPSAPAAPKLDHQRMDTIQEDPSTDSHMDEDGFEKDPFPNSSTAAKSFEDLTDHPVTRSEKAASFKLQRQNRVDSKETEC
UniProt O14734: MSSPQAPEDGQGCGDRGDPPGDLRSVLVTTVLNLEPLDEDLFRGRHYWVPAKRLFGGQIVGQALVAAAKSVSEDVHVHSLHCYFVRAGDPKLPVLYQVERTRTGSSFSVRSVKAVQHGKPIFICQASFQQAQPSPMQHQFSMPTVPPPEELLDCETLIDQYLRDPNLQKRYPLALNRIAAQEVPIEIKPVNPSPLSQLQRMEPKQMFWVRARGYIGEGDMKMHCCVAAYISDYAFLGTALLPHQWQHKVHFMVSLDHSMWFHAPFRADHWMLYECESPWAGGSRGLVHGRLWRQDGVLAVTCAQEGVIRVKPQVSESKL
UniProt O15439: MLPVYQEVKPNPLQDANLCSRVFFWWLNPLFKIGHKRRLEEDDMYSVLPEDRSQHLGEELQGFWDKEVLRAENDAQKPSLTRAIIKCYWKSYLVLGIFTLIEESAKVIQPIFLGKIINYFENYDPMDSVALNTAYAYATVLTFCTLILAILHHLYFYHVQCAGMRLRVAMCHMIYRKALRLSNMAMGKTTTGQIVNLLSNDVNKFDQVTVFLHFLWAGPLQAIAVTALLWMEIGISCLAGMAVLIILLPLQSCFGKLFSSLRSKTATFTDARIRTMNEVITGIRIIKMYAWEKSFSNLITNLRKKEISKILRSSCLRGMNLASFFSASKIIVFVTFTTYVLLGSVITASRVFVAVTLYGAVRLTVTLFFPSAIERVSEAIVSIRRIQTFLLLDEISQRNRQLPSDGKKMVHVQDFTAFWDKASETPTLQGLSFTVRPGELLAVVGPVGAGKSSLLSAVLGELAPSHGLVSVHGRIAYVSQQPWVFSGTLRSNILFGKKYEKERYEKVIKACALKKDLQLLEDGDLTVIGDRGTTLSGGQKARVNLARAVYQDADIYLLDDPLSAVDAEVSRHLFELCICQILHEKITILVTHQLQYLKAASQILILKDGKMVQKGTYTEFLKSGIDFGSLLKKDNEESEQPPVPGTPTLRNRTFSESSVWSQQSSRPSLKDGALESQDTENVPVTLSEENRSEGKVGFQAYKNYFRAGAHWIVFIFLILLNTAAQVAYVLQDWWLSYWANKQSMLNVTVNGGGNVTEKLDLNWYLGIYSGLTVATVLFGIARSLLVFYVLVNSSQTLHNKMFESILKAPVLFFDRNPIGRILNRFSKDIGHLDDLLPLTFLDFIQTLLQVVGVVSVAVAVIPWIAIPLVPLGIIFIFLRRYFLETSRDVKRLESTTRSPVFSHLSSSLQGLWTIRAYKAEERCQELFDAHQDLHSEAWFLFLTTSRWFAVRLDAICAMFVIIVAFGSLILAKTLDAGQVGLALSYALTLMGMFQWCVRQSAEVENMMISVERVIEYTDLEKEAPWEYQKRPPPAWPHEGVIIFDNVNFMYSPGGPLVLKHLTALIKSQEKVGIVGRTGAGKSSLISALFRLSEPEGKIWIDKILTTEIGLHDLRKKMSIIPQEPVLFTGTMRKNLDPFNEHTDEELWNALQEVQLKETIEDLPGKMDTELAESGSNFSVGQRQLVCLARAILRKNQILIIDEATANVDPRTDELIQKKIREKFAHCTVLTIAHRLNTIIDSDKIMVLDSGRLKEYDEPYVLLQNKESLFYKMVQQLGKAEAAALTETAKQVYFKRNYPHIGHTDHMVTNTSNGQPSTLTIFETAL
UniProt O96019, whole entry, looked up: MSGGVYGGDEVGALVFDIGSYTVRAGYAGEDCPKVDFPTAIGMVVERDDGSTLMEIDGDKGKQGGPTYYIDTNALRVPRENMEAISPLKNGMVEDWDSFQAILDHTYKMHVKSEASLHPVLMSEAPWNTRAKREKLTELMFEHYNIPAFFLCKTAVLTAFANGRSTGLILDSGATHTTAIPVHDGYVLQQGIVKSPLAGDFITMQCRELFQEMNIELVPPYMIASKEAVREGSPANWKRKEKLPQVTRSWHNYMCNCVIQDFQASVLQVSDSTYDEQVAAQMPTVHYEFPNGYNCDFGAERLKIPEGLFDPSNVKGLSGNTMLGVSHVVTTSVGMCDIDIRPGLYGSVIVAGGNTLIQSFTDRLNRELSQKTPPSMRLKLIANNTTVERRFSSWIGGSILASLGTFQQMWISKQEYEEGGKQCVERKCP
UniProt Q6DHV7: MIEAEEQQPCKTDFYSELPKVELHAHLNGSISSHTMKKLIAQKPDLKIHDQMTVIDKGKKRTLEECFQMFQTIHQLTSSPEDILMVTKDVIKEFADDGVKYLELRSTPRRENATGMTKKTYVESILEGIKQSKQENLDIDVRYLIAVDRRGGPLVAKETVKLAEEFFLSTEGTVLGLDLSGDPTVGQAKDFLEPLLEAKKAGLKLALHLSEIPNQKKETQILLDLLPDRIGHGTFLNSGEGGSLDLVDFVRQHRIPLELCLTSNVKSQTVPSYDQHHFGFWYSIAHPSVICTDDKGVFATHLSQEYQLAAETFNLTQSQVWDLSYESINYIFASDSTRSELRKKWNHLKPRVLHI
UniProt P09110: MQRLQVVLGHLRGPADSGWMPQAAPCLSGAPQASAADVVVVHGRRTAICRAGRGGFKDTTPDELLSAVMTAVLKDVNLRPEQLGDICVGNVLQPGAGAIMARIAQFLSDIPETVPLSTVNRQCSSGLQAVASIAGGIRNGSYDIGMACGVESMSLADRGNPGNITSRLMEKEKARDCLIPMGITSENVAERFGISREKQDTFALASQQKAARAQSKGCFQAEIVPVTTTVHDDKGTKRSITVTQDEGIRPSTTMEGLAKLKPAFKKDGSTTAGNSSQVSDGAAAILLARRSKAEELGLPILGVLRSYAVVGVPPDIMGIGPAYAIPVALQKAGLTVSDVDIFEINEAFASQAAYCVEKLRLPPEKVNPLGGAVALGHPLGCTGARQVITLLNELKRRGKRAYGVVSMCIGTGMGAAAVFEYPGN
UniProt Q7Z6V5: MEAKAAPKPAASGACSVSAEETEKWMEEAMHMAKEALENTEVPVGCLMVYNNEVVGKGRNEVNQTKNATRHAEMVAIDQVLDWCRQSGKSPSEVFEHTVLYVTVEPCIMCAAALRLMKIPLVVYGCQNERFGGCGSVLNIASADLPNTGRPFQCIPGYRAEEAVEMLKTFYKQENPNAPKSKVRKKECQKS

Compound: Cc1nc(Nc2n[nH]c3c2CN(C(=O)N[C@H](CN(C)C)c2ccccc2)C3(C)C)c2sccc2n1
Test: log2 fold change, soluble protein after heating vs DMSO (PISA); higher = thermal stabilisation; K562 cells, 10 uM, 30 min; active = over 0.2 and 3.5 SD of the protein, either way, in both replicates (recomputed)
Procedure, shortened: (§1)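 Aliquots of K562 cells (2×10^6 cells/mL) treated with 10 μM compound for 30 min were heated for 3 min over 48°C-58°C. After pooling and extraction in PBS with 0.5% NP-40 at 4°C, soluble protein from a 21,000xg, 90 min spin was quantified by TMTpro 16plex LC-MS/MS with channel sums equalised. Thermal stability is expressed against control samples, from duplicates, as a log2 fold change.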

log2 fold change, inactive:
ACACA isoform 4 (UniProt Q13085) -0.098
ACSS2 isoform 2 (UniProt Q9NR19) -0.014
ACOX1 isoform 2 (UniProt Q15067) 0.052
ACAT1 (UniProt P24752) -0.035
ACTR2 (UniProt P61160) -0.008
ACADS (UniProt P16219) 0.016
ADAM10 (UniProt O14672) 0.003
ABHD12 isoform 2 (UniProt Q8N2K0) -0.002
ADAR isoform 4 (UniProt P55265) 0.128
ACTR10 (UniProt Q9NZ32) -0.011
ABLIM1 (UniProt O14639) -0.089
ABCF3 (UniProt Q9NUQ8) -0.115
ABRAXAS2 (UniProt Q15018) 0.019
ACTA1 (UniProt P68133) -0.023
ADAM17 (UniProt P78536) 0.019
A2M (UniProt P01023) 0.08
ACADSB (UniProt P45954) 0.109
ACOT8 (UniProt O14734) -0.003
ABCC4 (UniProt O15439) 0.001
ACAD8 (UniProt Q9UKU7) -0.064
ACY1 (UniProt Q03154) 0.009
AASDHPPT (UniProt Q9NRN7) 0.021
ACTL6A (UniProt O96019) 0.002
ABCB7 isoform 2 (UniProt O75027) -0.003
ADAL (UniProt Q6DHV7) 0.017
ACTR6 (UniProt Q9GZN1) -0.005
ACO1 (UniProt P21399) -0.02
ACTR3 (UniProt P61158) 0.019
ABCD3 (UniProt P28288) 0.069
ACAA1 (UniProt P09110) 0.003
ABCE1 (UniProt P61221) 0.027
ADAT2 (UniProt Q7Z6V5) -0.015
ABCF1 (UniProt Q8NE71) 0.108
ACTN4 (UniProt O43707) 0.003
AARS (UniProt P49588) 0.008
ACTL8 (UniProt Q9H568) 0.003

Compound: Cc1nc(Nc2ncc(C(=O)Nc3c(C)cccc3Cl)s2)cc(N2CCN(CCO)CC2)n1 [dasatinib]
Test: as above
Procedure, shortened: as §1

log2 fold change, inactive:
ACACA isoform 4 (UniProt Q13085) -0.086
ACSS2 isoform 2 (UniProt Q9NR19) -0.077
ACOX1 isoform 2 (UniProt Q15067) -0.007
ACAT1 (UniProt P24752) 0.007
ACTR2 (UniProt P61160) 0.082
ACADS (UniProt P16219) -0.091
ADAM10 (UniProt O14672) -0.037
ABHD12 isoform 2 (UniProt Q8N2K0) 0.009
ADAR isoform 4 (UniProt P55265) -0.012
ACTR10 (UniProt Q9NZ32) -0.018
ABLIM1 (UniProt O14639) -0.117
ABCF3 (UniProt Q9NUQ8) 0.053
ABRAXAS2 (UniProt Q15018) 0.063
ACTA1 (UniProt P68133) 0.072
ADAM17 (UniProt P78536) 0.01
A2M (UniProt P01023) 0.084
ACADSB (UniProt P45954) -0.128
ACOT8 (UniProt O14734) 0.053
ABCC4 (UniProt O15439) 0.029
ACAD8 (UniProt Q9UKU7) 0.02
ACY1 (UniProt Q03154) 0.018
AASDHPPT (UniProt Q9NRN7) -0.044
ACTL6A (UniProt O96019) -0.057
ABCB7 isoform 2 (UniProt O75027) -0.068
ADAL (UniProt Q6DHV7) 0.007
ACTR6 (UniProt Q9GZN1) 0.004
ACO1 (UniProt P21399) -0.048
ACTR3 (UniProt P61158) 0.071
ABCD3 (UniProt P28288) -0.129
ACAA1 (UniProt P09110) 0.019
ABCE1 (UniProt P61221) 0.043
ADAT2 (UniProt Q7Z6V5) -0.046
ABCF1 (UniProt Q8NE71) 0.022
ACTN4 (UniProt O43707) 0.058
AARS (UniProt P49588) -0.006
ACTL8 (UniProt Q9H568) 0.021
